# Structures can show the parent of a compound that is named as a salt. The list shows a part of the results. This data set is noisy: repeats of one test often differ as much as different tests do.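 Human kidney-derived cells stably carry a construct in which eight TEAD-binding elements drive luciferase, measured by luminescence in a drug-repurposing library screen. A hit is any compound whose signal exceeds the plate mean by more than five robust Z scores.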
# Tested on: HEK293A TEAD-LUC reporter
# Assay: TEAD-luciferase reporter activity (YAP activation), robust Z score vs plate; higher = stronger YAP/TEAD activation
# Settings: 24 h
SMILES,TEAD-luciferase reporter activity (compound concentration: 200 nM),TEAD-luciferase reporter activity (compound concentration: 2 uM),TEAD-luciferase reporter activity (compound concentration: 10 uM)
Nc1ccn([C@@H]2S[C@H](CO)[C@@H](O)[C@@H]2O)c(=O)n1,inactive: -0.949,inactive: 0.628,inactive: -1.48
CCO[C@@H](Cc1ccc(OCCc2ccc(OS(C)(=O)=O)cc2)cc1)C(=O)O [Tesaglitazar],inactive: -1.88,inactive: -1.19,inactive: -0.671
CCN(CC)CCOCCOC(=O)C1(c2ccccc2)CCCC1,inactive: -2.04,inactive: -1.09,inactive: -1.55
Cc1ccc2c(c1)C(=O)CCC21CCC(=O)NC1=O (stereo not drawn),inactive: 0.192,inactive: -0.0912,inactive: 0.0452
Cc1cc(C(=O)Nc2cc(Oc3ccc4nc(NC(=O)C5CC5)cn4n3)ccc2C)n(C)n1,inactive: -1.1,inactive: -0.472,inactive: 1.6
O=c1c(O)c(-c2ccc(O)cc2)oc2cc(O)cc(O)c12,inactive: -2.16,inactive: -1.25,active: 24.3
CCCCCOc1ccc(NC(=S)NC(=O)c2cccnc2)cc1C(F)(F)F,inactive: -1.66,inactive: -0.712,inactive: 0.86
Cc1nc[nH]c1CN1CCc2c(c3ccccc3n2C)C1=O [Alosetron HCl],inactive: 3.01,inactive: -0.375,inactive: -1.11
COc1ccc(C(=O)N2CCCc3cc(C4=C(C)SC(=O)NN4)ccc32)cc1OC,inactive: 0.814,inactive: -0.55,inactive: -2.3
C=CC(=O)N1CC[C@H](n2nc(C#Cc3cc(OC)cc(OC)c3)c3c(N)ncnc32)C1,inactive: -1.23,inactive: -0.459,inactive: 0.361
NC(=O)[C@H]1CCN(c2ncnc(N)c2F)C[C@@H]1N1CCC[C@@H](Nc2cc(Cl)cc(C(F)(F)F)c2)C1=O,inactive: 0.0361,inactive: 0.254,inactive: 0.819
COCC(=O)NC1CCN(c2nc3ncccc3o2)CC1,inactive: 1.92,–,inactive: -1.56
O=C(/C=C/c1ccc(Cl)cc1Cl)NC[C@H]1CN(c2ccc(N3CCOCC3)c(F)c2)C(=O)O1,inactive: -0.667,inactive: -2.13,inactive: 2.73
CCc1ccc(CCOc2ccc(CC3SC(=O)NC3=O)cc2)nc1 (stereo not drawn),inactive: -0.662,–,inactive: 3.95
CN1CCN([C@H]2C[C@H](c3ccccc3)c3ccccc32)CC1,inactive: -0.847,inactive: -2.18,inactive: 0.589
COc1cncc(/C=C/CCNC(C)(C)C)c1,inactive: 1.94,inactive: -0.892,inactive: 0.486
CCCCCCCCCCCC(=O)O [Lauric acid],inactive: -0.776,inactive: -1.56,inactive: 1.28
Cc1nc2c(cc1-c1ccncc1)=NC(=O)N=2,inactive: -0.0365,inactive: -1.18,inactive: 0.317
COc1ccc(/C=N/NC2=NCCN2)cc1,inactive: -1.55,inactive: -1.3,inactive: 2.02
[O]=[Bi][O][Bi]=[O],inactive: 4.15,–,inactive: -0.209
CCOc1ccc2c(c1)Sc1cccc(OC)c1C2=C1CCN(C)CC1,inactive: -0.956,inactive: 0.151,inactive: 0.256
Cc1ccc(O[C@H]2O[C@H](CCP(=O)(O)O)[C@@H](O)[C@H](O)[C@@H]2O)c(C)c1,inactive: 2.73,inactive: 1.94,inactive: -1.04
Nc1nc(I)nc2c1ncn2[C@@H]1O[C@H](CO)[C@@H](O)[C@H]1O,inactive: -0.796,inactive: 0.925,inactive: -1.23
O=C(Nc1ccc(N2CCCCC2)cc1)C(=O)c1c(-c2ccccc2)cc2ccccn12,inactive: -0.347,inactive: -0.718,inactive: 2.99
c1nc(NC2CCCC2)c2nc[nH]c2n1,inactive: -0.854,inactive: -0.912,inactive: 1.09
Cc1[nH]cnc1CSCCNc1nc(=O)c(Cc2ccc3c(c2)OCO3)c[nH]1 [oxmetidine],inactive: -0.101,inactive: 0.546,inactive: -0.846
COC1/C=C/OC2(C)Oc3c(C)c(O)c4c(O)c(c(/C=N/N=C/N5CCCCC5)c(O)c4c3C2=O)NC(=O)/C(C)=C\C=C\C(C)C(O)C(C)C(O)C(C)C(OC(C)=O)C1C (stereo not drawn),inactive: -0.395,inactive: -0.77,inactive: 4.86

# 2 of the compounds above, with tabs.
SMILES	TEAD-luciferase reporter activity (compound concentration: 200 nM)	TEAD-luciferase reporter activity (compound concentration: 2 uM)	TEAD-luciferase reporter activity (compound concentration: 10 uM)
COc1ccc(C(=O)N2CCCc3cc(C4=C(C)SC(=O)NN4)ccc32)cc1OC	inactive: 0.814	inactive: -0.55	inactive: -2.3
C=CC(=O)N1CC[C@H](n2nc(C#Cc3cc(OC)cc(OC)c3)c3c(N)ncnc32)C1	inactive: -1.23	inactive: -0.459	inactive: 0.361

# Reference: the supplement of paper PMC10735217
